This is one part of the list. Further columns of the screen follow, without active or inactive calls. The list favours compounds with an active or inconclusive main result. Potencies come from curve fits of mixed quality, noted in brackets.
Test: qHTS Assay for Lipid Storage Modulators in Drosophila S3 Cells;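 for cell number change: cells counted by Cell Tracker Red CMTPX staining in the red channel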
Settings: BODIPY lipid droplet fluorescence, 18-24 h; for cell number change: measured here: cell count max response, cells fed with added oleic acid
Summary of the method: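 Drosophila S3 cells loaded with oleic acid (400 uM, as added) and compounds at several concentrations; lipid droplets imaged by 488-nm laser-scanning cytometry, 500–530 nm intensity and object ratio to cell channel. Percent activity normalized to 20 uM Triacsin C.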

[1] = measured here: lipid fluorescence (Fed channel) AC50, cells fed with added oleic acid
[2] = measured here: cell number channel AC50, cells fed with added oleic acid

Compound	cell number change	AC50 [1]	AC50 [2]
Cc1nc(C)c(C(=O)Nc2ccccc2-c2ccccc2)o1	-23.1%	16.4 µM [falling, single point]	
O=c1oc2ccccc2c(N2CCCC2)c1CN1CCCC1	0.804%		0.82 µM [rising, single point]
CCc1cc2c(=O)n(Cc3ccco3)c(SCC(=O)N(C)C3CCS(=O)(=O)C3)nc2s1 (configuration not stated)	46%	2.59 µM [rising, partial curve]	
Cc1ccccc1OCC(O)CN1CCN(CC(O)COc2ccccc2C)CC1 (configuration not stated)	-14.5%		
O=C(CN1c2ccccc2Sc2ccccc21)NNC(=O)Nc1cccc(Cl)c1	-26.3%	4.61 µM [falling, partial curve]	
COc1ccc(CCNC(=O)CCS(=O)(=O)c2cccc3nsnc23)cc1OC	3.38%	6.51 µM [rising, single point]	
COc1cc(NC(=O)CSc2nnc3ccc(-c4ccncc4)nn23)cc(OC)c1	8.58%	0.92 µM [rising, full curve, poor fit]	
O=C1CCC(NC(=O)c2ccccc2)C(=O)N1 (configuration not stated)	-51%	29.1 µM [falling, single point]	32.6 µM [falling, partial curve, poor fit]
O=C(Nc1ccc(F)cc1)N1CCCN(c2nccc(C(F)(F)F)n2)CC1	-0.793%	4.61 µM [falling, single point]	6.51 µM [falling, single point]
S=C(Nc1ccccc1)N(CCN1CCOCC1)Cc1cccc(Cl)c1	-15.1%	18.4 µM [falling, single point]	
CCOC(=O)[C@H]1[C@H]2COc3ccc(Br)cc3[C@H]2N2C(=O)CNC(=O)[C@@]12C	-12.7%	0.092 µM [falling, single point]	
COc1ccc(OCc2cc(C(=O)N3C[C@@H](C)O[C@@H](C)C3)no2)c(Cl)c1	27.8%	6.51 µM [rising, single point]	
CC(=O)Nc1ccccc1-c1ccc(C)o1	-17.4%	0.00461 µM [rising, full curve, poor fit]	
CCS(=O)(=O)C1=NN2C(=N)/C(=C\c3ccc(OS(=O)(=O)c4ccccc4)cc3)C(=O)N=C2S1		29.1 µM [falling, single point]	
O=C(COC(=O)CNC(=O)C1CCCCC1)Nc1ccc2c(c1)OCCO2	9.16%		0.00517 µM [rising, full curve, poor fit]
CC(=O)c1cccc(OCc2cc(C(=O)N(C)C(C)c3ccccn3)no2)c1 (configuration not stated)	4.53%	0.164 µM [rising, full curve, poor fit]	

A draw from above in order of length of the SMILES, low to high.
Compound	cell number change	AC50 [1]	AC50 [2]
O=c1oc2ccccc2c(N2CCCC2)c1CN1CCCC1	0.804%		0.82 µM [rising, single point]
COc1ccc(OCc2cc(C(=O)N3C[C@@H](C)O[C@@H](C)C3)no2)c(Cl)c1	27.8%	6.51 µM [rising, single point]	
CCOC(=O)[C@H]1[C@H]2COc3ccc(Br)cc3[C@H]2N2C(=O)CNC(=O)[C@@]12C	-12.7%	0.092 µM [falling, single point]	

Reference: PubChem BioAssay AID2685 (National Center for Advancing Translational Sciences (NCATS), 2010)
